Data as given in PMC4539610.
These are yes or no findings as the source states them, for the method shown. Binding seen in cells or lysates may run through a third protein. Some binding calls cover weakened binding; strength is not graded here. Each block holds one substance with its values, some of them ahead of it.

Amino acid sequences for entries named in this document (tags omitted). A change or cut given only in a name is not applied to a line headed by its entry.
UniProt P05198: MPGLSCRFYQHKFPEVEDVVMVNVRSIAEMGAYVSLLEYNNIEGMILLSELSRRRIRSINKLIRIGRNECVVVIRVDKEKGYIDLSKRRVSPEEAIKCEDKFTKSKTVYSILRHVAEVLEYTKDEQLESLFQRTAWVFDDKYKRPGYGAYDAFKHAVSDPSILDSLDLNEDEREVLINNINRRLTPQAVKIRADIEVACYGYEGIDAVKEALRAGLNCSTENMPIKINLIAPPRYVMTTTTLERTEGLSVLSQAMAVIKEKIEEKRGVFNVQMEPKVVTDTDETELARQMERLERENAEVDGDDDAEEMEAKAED
UniProt Q9NTK5: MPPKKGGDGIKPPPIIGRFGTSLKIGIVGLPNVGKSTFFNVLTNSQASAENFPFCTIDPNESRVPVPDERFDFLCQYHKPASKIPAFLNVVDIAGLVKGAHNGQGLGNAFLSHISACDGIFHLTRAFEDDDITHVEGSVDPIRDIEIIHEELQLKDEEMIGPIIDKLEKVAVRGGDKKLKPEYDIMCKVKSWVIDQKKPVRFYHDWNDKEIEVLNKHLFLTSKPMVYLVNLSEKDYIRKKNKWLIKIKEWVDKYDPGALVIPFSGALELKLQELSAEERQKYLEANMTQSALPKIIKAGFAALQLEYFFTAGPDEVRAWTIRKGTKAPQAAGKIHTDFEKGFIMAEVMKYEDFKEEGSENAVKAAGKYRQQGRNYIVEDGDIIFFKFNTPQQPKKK
UniProt P41091: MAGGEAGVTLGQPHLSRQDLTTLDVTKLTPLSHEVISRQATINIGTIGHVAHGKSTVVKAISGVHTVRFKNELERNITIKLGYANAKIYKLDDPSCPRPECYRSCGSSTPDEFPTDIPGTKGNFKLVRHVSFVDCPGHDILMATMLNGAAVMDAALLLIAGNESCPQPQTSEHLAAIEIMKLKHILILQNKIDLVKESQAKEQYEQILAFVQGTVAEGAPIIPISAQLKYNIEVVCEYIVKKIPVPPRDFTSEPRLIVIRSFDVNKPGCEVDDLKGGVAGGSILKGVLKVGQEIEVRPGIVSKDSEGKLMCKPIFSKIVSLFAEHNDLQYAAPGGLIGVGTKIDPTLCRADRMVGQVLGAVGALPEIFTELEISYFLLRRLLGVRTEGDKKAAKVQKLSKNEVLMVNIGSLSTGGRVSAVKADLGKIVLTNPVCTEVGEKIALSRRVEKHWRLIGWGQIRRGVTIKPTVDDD
UniProt P20042: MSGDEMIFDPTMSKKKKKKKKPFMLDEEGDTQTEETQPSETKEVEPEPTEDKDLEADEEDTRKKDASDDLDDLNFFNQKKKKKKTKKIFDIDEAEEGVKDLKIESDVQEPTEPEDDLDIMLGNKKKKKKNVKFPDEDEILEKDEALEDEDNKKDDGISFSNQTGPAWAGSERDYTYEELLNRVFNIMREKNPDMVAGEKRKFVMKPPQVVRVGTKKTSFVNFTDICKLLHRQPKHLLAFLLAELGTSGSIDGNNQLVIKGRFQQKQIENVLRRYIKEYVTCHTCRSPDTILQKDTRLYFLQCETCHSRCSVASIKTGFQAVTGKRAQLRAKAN

Key:
[1] = target: HA-tagged eIF2α (wild type), ectopically expressed (UniProt P05198); assay: co-IP; HEK293T cells transfected with control vector or HA-eIF2α vectors; lysates immunoprecipitated with anti-HA antibody, immunoblot
[2] = target: eIF2α (α subunit of eukaryotic initiation factor 2), endogenously expressed (human (endogenous in HEK293T)) (UniProt P05198); assay: co-IP; HEK293T cell lysate immunoprecipitated with anti-eIF2α or anti-IgG antibody, blotted with anti-OLA1 and anti-eIF2α; both proteins endogenous
[3] = target: eIF2α of the in vitro IP assay (UniProt P05198); assay: co-IP; in vitro IP assay (Fig. S2C); details not shown
[4] = target: recombinant OLA1 (wild type) (human) (UniProt Q9NTK5); assay: pull-down; recombinant OLA1 as bait, the three eIF2 subunits detected (Fig. S2D); details not shown
[5] = target: FLAG-tagged OLA1 (wild type), ectopically expressed (human) (UniProt Q9NTK5); assay: co-IP; HEK293T cells transfected with control or FLAG-OLA1 vector for 48 h; lysates immunoprecipitated with anti-FLAG antibody, immunoblot

Substance: OLA1 (Obg-like ATPase 1), endogenously expressed (from UniProt Q9NTK5-1 1-396)
binding [1]: binds
binding [2]: binds

Substance: eIF2 α subunit pulled down by recombinant OLA1 (from UniProt P05198 1-315)
binding [4]: binds

Substance: eIF2 γ subunit pulled down by recombinant OLA1 (from UniProt P41091 1-472)
binding [4]: binds

Substance: eIF2α (α subunit of eukaryotic initiation factor 2), endogenously expressed (from UniProt P05198 1-315)
binding [5]: binds

Further lines, results first:

binding [3]: binds
Substance: OLA1 of the in vitro IP assay (from UniProt Q9NTK5-1 1-396)

binding [4]: binds
Substance: eIF2 β subunit pulled down by recombinant OLA1 (from UniProt P20042 1-333)
